# Values from PubChem BioAssay AID743454 (Peter MacCallum Cancer Centre, 2014)
# Aim: 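Knock-downs lowering viability or raising caspase 3/7 activity in vorinostat-treated resistant cells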 (primary screen)
# Cell system: human HCT116-VR colon cancer cells, selected for vorinostat resistance
# Reagents: siRNA pool against human genes, 40 nM siRNA pool
# Time to read-out: vorinostat for 24 h, read-out about 72 h after transfection
# Conditions: vorinostat at 2.5 µM final
# Measurement: 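Two measures, CellTiter-Fluor viability and luminescent caspase 3/7 activity, each as fold change against same-plate mock wells, mean of duplicates, then screen-wide robust z-score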
# Scale: viability robust z-score: higher = more viable cells than screen typical; caspase robust z-score: higher = more caspase 3/7 activity than screen typical
# Hit rule: 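a knock-down is a hit when classed RV1 or RV2 for lowered viability, or CA1 or CA2 for caspase activation; those lethal without drug were dropped; hits were retested singly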
# Here is a random part of about 18,000 reagents tested. In the full data, 450 (2.5%) got an active call. 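Single biological run; no consistent viability z cut-off exists, so the class columns, not z-scores, define the calls.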 Reagent sequences are not shown.
gene,viability hit class,caspase hit class,viability robust z-score,caspase robust z-score,call
RPL26,no change,no change,-4.57,-0.96,inactive
ABCG2,no change,no change,0.64,-0.58,inactive
SERPINA5,no change,no change,-0.82,-0.38,inactive
DSG1,no change,no change,0.58,-0.03,inactive
ESF1,no change,no change,-0.61,-0.98,inactive
ENHO,no change,no change,0.69,-0.29,inactive
FSTL1,no change,no change,-0.5,1.81,inactive
CHEK1,no change,no change,-0.73,1.82,inactive
CLEC9A,no change,no change,0.32,-0.38,inactive
OR10A6,no change,no change,-1.27,3.5,inactive
LAMTOR5,no change,no change,0.9,1.12,inactive
ENOPH1,no change,no change,1.33,-0.02,inactive
TMEM106B,no change,no change,0.3,0.16,inactive
XPOT,no change,no change,-0.28,-0.14,inactive
SPANXA1,no change,no change,-2.57,-0.4,inactive
WWOX,no change,no change,-1.94,3.69,inactive
KREMEN2,no change,no change,-0.88,1.08,inactive
CYFIP1,no change,no change,-0.11,0.03,inactive
RUVBL2,no change,no change,-2.73,1.5,inactive
SREBF1,no change,no change,-0.76,-0.46,inactive
ZNF334,no change,no change,0.29,-0.71,inactive
LCE3B,no change,no change,-0.08,-0.69,inactive
GTF2H1,no change,no change,-0.65,-0.38,inactive
CD69,no change,no change,0.73,-0.3,inactive
ERAP1,no change,no change,-0.55,-0.75,inactive
ZNF628,no change,no change,-0.76,1.81,inactive
ZNF750,no change,no change,-0.24,-0.11,inactive
GET1,no change,no change,1.77,-0.01,inactive
SPTSSA,no change,no change,-0.01,-0.32,inactive
SAMTOR,no change,no change,-1.39,-0.09,inactive
DNM1,no change,no change,-0.28,1.44,inactive
TSC2,no change,no change,1.11,0.62,inactive
ZSCAN21,no change,no change,-1.36,-0.98,inactive
TRIM6-TRIM34,no change,no change,0.52,-0.04,inactive
PRDM8,no change,no change,-0.49,2.53,inactive
AHCYL1,no change,no change,0.36,-0.74,inactive
DIO1,no change,no change,-5.35,-0.23,inactive
AKIRIN2,no change,no change,0.76,2.29,inactive
TRPC6,no change,no change,-0.2,1.68,inactive
CEBPD,no change,no change,-2.9,-0.91,inactive
PRSS23,no change,no change,-0.04,1.54,inactive
MAML2,no change,no change,-1.35,0.34,inactive
ADCY6,no change,no change,0.68,0.48,inactive
NEUROG2,no change,no change,0.78,0.48,inactive
LVRN,no change,no change,-0.21,-1.08,inactive
ZNF579,no change,no change,0.16,1.08,inactive
FAAP20,no change,no change,-0.92,0.56,inactive
CSF2,no change,no change,-1.22,4.02,inactive
ART3,no change,no change,-0.71,-0.73,inactive
LILRB2,no change,no change,1.3,-0.36,inactive
HSPE1,no change,no change,-0.52,0.22,inactive
LCN15,no change,no change,-0.34,-0.18,inactive
CELSR2,no change,no change,-0.02,0.13,inactive
HTN1,no change,no change,0.64,1.8,inactive
MYH8,no change,no change,-0.52,-0.98,inactive
C2orf68,no change,no change,-0.47,4.67,inactive
ABR,no change,no change,-0.48,0.78,inactive

Records above whose gene name begins with M or m (2):
gene,viability hit class,caspase hit class,viability robust z-score,caspase robust z-score,call
MAML2,no change,no change,-1.35,0.34,inactive
MYH8,no change,no change,-0.52,-0.98,inactive
